Results as given in PubChem BioAssay AID493014 (National Center for Advancing Translational Sciences (NCATS), 2011).
The campaign covered roughly 340,000 compounds. About 170 (0.05%) were called active. Inconclusive results, whose numbers are uncertain, are shown with a selection of clear calls. The call rests on the fitted dose curve; in most records, active means well fitted inhibition curve with a large enough effect in the signal ratio, with a control signal flat (not every such curve was filed as active); inconclusive means small, poorly fitted or top-dose-only effect, or effect the other way, or a change in a side signal; inactive means flat fitted curve, though single readings scatter; the % refers to the signal ratio. Potencies of inconclusive entries are doubtful fits and often do not repeat.

Experiment: qHTS Assay to Find Inhibitors of Chronic Active B-Cell Receptor Signaling;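 on activity change, negative = inhibition: plate controls were basal doxycycline-induced cells for no effect and cells given 10 µM MG132 for full effect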
Settings: ABC-DLBCL IkBa-CBG/CBR reporter, luminescence ratio (green luciferase fused to IkBa over red control in TMD8 lymphoma cells), 4 h; activity change, negative = inhibition: at 46.1 µM (top of the series)
Procedure, shortened: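 TMD8 ABC-DLBCL cells carrying doxycycline-inducible green luciferase fused to IkappaBalpha plus unfused red luciferase were exposed to compounds (up to 46 uM) for 4 hrs at 37C. Activity came from the overlap-corrected green/red luminescence ratio.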
Potency means the concentration at half of the fitted maximal effect.

Row | SMILES | activity change, negative = inhibition | Potency
1 | Cc1csc(NC(=O)C2CCCN(S(=O)(=O)c3ccc4c(c3)oc(=O)n4C)C2)n1 (centres undefined) | inconclusive: 12.3% | 
2 | O=C(O)Cc1c[nH]c2cccc(O)c12 |  | inconclusive: 12.6 µM [falling, partial curve, poor fit]
3 | COC(=O)c1cc2oc(C)cc2n1Cc1ccc(Cl)cc1 | inactive | 
4 | COc1cc(/C=N/NC(=O)c2cccc(NC(=O)c3ccccc3Cl)c2)ccc1O |  | inconclusive: 12.6 µM [falling, partial curve]
5 | CCOC(=O)/C=c1\s/c(=C\c2ccc3cc(OC)ccc3c2)c(=O)n1CC(=O)NCC1CCCO1 (centres undefined) | inactive | 
6 | COC(=O)Nc1ccc(S(=O)(=O)NC2CCS(=O)(=O)C2)cc1 (centres undefined) | inconclusive: -1.06% | 
7 | O=C(CNc1cccc(S(=O)(=O)N2CCOCC2)c1)N1CCc2ccccc21 | inactive | 
8 | C[C@H](NC(=O)N1CCC(Cc2ccccc2)CC1)C(=O)O | inactive | 
9 | O=C(O)c1cnn(-c2nc(-c3ccc(Cl)cc3)cs2)c1C(F)(F)F | inconclusive: -18.4% | 
10 | COCC(=O)Nc1sc2c(c1C(=O)OC)CCCC2 | inconclusive: 13.6% | 
11 | COC(=O)c1nnn(-c2cc(Cl)cc(Cl)c2)c1C(=O)OC | inconclusive: 6.65% | 
12 | Cc1ccc(CN2C(=O)N(c3ccc(C)c(Cl)c3)S(=O)(=O)c3ccccc32)cc1 | inactive | 
13 | CN(/N=C/c1ccccc1Cl)c1ncc(Cl)cc1C(F)(F)F | inconclusive: 3.53% | 
14 | C[C@]12c3[nH]c4cc(-c5ccco5)ccc4c3CCN1C(=O)[C@@H](CC(=O)NCCN1CCOCC1)C[C@@H]2C(=O)N1CCCCC1 |  | inconclusive: 14.6 µM [falling, partial curve]
15 | CCOC(=O)CN(C(=O)CSc1nnc(Cc2ccccc2)n1-c1ccc(C)cc1)c1ccccc1 | inconclusive: 20.2% | 
16 | Cc1ccccc1OCC(=O)N/N=C/c1cn(Cc2ccccc2)c2ccccc12 | inactive | 
17 | O=C(CSc1ccc(-c2ccccc2)nn1)N1CCCc2ccccc21 |  | inconclusive: 20.6 µM [rising, partial curve, poor fit]
18 | COC(=O)c1ccc(/C=N/OCC(=O)NC2CCCC(C)C2C)cc1 (centres undefined) | inactive | 
19 | Cc1ccc(/C=N/NC(=O)c2nn(C)cc2Cl)cc1 |  | inconclusive: 18.4 µM [falling, partial curve]
20 | CS(=O)(=O)N(CC(=O)N1CCN(c2ccc(F)cc2)CC1)c1cccc(Cl)c1 | inconclusive: -2.19% | 
21 | Cc1noc(C)c1S(=O)(=O)Nc1ccc(C(=O)N2CCN(c3cccc(Cl)c3)CC2)cc1 | inconclusive: -0.99% | 
22 | CCN(CC)C(=O)CSC(Nc1ccc(F)cc1)=C(C#N)C#N |  | inconclusive: 5.62 µM [falling, full curve, poor fit]
23 | CCNc1nc(N2CCCCC2)nc(-n2nnc(C(=O)OCC)c2C)n1 | inconclusive: 2.84% | 
24 | CN1CCc2c(sc3c2C(=O)NC(c2ccc(-c4ccc(Cl)cc4)o2)N3)C1 (centres undefined) |  | inconclusive: 7.08 µM [falling, partial curve]
25 | CC(=O)Nc1ccc(NC(=O)C(F)(F)F)cc1 | inconclusive: 17.1% | 
26 | Cc1ccc(C(=O)Nc2nccs2)cc1 | inconclusive: 5.83% | 
27 | Oc1ccc(-c2cccc(-c3ccc(O)cc3)n2)cc1 |  | inconclusive: 22.4 µM [falling, single point]

Row | SMILES | activity change, negative = inhibition | Potency
28 | O=C(Nc1ccccc1)C(Cl)C(=O)c1ccccc1 (centres undefined) |  | inconclusive: 25.1 µM [cytotoxic, single point]
29 | CC(Oc1ccc2ccccc2c1)C(=O)NNC(=S)NC(=O)c1ccco1 (centres undefined) | inconclusive: -23% | 
30 | CC(CCc1ccc(O)cc1)NC(c1ccccc1)c1ccc(Cl)cc1 (centres undefined) | inconclusive: 0.704% | 
31 | CC(=O)N(\C=C/C=C/C=C1\Sc2ccccc2C1=O)c1ccccc1 |  | inconclusive: 2 µM [falling, partial curve]
32 | COc1ccc(C)c2sc(N(CCCN(C)C)C(=O)c3ccc(S(=O)(=O)N(C)C)cc3)nc12 | inconclusive: 7.37% | 
33 | COC(=O)c1ccccc1NC(=O)C12CC3CC(C1)CC(n1cnc(Cl)n1)(C3)C2 | inactive | 
34 | COc1cccc2cc(/C(=N/O)c3ccccc3)oc12 | inconclusive: -6.48% | 
35 | O=C1CCC([N+](=O)[O-])C(c2cccc(Cl)c2Cl)N1 (centres undefined) |  | inconclusive: 29.1 µM [rising, single point]
36 | Cc1ccc(/C=N/n2c(C3CCCCC3)n[nH]c2=S)o1 | inconclusive: 1.17% | 
37 | CC1CC1C(=O)Nc1nc(-c2cccs2)c(-c2cccs2)s1 (centres undefined) |  | inconclusive: 9.2 µM [rising, partial curve, poor fit]
38 | CC(C)C(C(=O)NCc1ccco1)N(Cc1ccco1)C(=O)CNS(=O)(=O)c1ccc(F)cc1 (centres undefined) | inconclusive: 1.49% | 
39 | CCC1Oc2ccc(C)cc2N(CC(=O)N(Cc2cccnc2)Cc2ccc(C)o2)C1=O (centres undefined) | inconclusive: -16.4% | 
40 | COc1ccc(C2CCCN2C(=S)Nc2cccc(C)c2C)cc1OC (centres undefined) | inactive | 
41 | CCN(CC)c1ccc(NC(=O)CN2CCN(c3nc(C)cc(C)n3)CC2)cc1 |  | inconclusive: 23.1 µM [falling, partial curve, poor fit]
42 | CCOC(=O)c1cccc(NC(=O)/C=C/c2ccc([N+](=O)[O-])cc2)c1 |  | inconclusive: 9.2 µM [falling, partial curve]
43 | O=C(CCN1CCOCC1)c1ccccc1 | inactive | 
44 | CCCOc1ccc(NC(=O)C2CC(=O)N3CCCN=C3S2)cc1 (centres undefined) | inconclusive: 0.48% | 
45 | CC(C)c1nc(SCC(=O)Nc2nc3c(s2)CCCC3)c2ccccc2n1 |  | inconclusive: 29.1 µM [falling, single point]
46 | CCOc1cc(C(=O)N/N=C/C(Br)=C/c2ccccc2)cc(OCC)c1OCC |  | inconclusive: 7.31 µM [falling, partial curve]
47 | CN1CCN(C(=O)C2CCC(CNS(=O)(=O)c3cccc4cccnc34)CC2)CC1 (centres undefined) | inconclusive: -1.5% | 
48 | CCOC(=O)c1cc(-c2ccc(F)cc2)n(CCC(=O)NCc2ccc(C)cc2)c1C | inconclusive: 4.58% | 
49 | Nn1c(C2CCC2)nc2cc(Cl)ccc2c1=O | inconclusive: 6.04% | 
50 | N#CCCN(C(=O)COC(=O)c1ccc(S(=O)(=O)N2CCCC2)cc1)c1cccc(Cl)c1 | inconclusive: 0.578% | 
51 | CNC(=S)N1N=C(c2cccs2)CC1c1ccc(F)cc1 (centres undefined) | inactive | 
52 | CCOc1ccc(OCCCC(=O)N2CCN(S(=O)(=O)c3ccccc3C#N)CC2)cc1 | inactive | 
53 | O=C(/C=C/c1cccc(Br)c1)NC1CCN(Cc2ccccc2)CC1 |  | inconclusive: 31.6 µM [falling, single point]
54 | CNC(=S)N/N=C/c1cc(Br)c(OCc2ccncc2)c(OC)c1 | inconclusive: -5.01% | 

Row | SMILES | activity change, negative = inhibition | Potency
55 | COc1ccc(C(=O)C(CCCCC(CN(C)C)C(=O)c2ccc(OC)cc2)CN(C)C)cc1 (centres undefined) |  | inconclusive: 10 µM [falling, partial curve]
56 | COc1ccccc1NC(=O)Cc1c(F)cccc1Cl | inactive | 
57 | O=C1c2ccccc2C(=O)N1CCc1c[nH]c2ccc(O)cc12 |  | inconclusive: 15.8 µM [falling, single point]
58 | CCOC(=O)NC1(Nc2cccc(Cl)c2)Oc2ccccc2O1 | inconclusive: -14% | 
59 | Fc1ccc(N2N=C(c3cccs3)CC2c2ccccc2)cc1 (centres undefined) | inconclusive: 27.6% | 
60 | O=C(c1cccc(Cl)c1)C1CCCN(C(=O)c2ccc3c(c2)OCO3)C1 (centres undefined) | inactive | 
61 | O=C(Nc1ccnn1C1CCN(C2CCCC2)CC1)c1ccccc1 | inconclusive: -9.38% | 
62 | O=C(CCCCl)NC1=NN(c2ccccc2)C(=O)C1 | inconclusive: -13.5% | 
63 | CC(C)(C)c1ccc(S(=O)(=O)NCc2ccc(C(=O)N3CCCC3)cc2)cc1 | inconclusive: 1.64% | 
64 | O=C(COC(=O)c1cnc(Cl)c(Cl)c1)Nc1ccc(S(=O)(=O)N2CCCC2)cc1 | inactive | 
65 | COc1ccc(CN(C)C(=O)c2[nH]c(C)c(C(C)=O)c2C)cc1F | inactive | 
66 | O=C(O)CCNS(=O)(=O)c1ccc2ccccc2c1 |  | inconclusive: 18.4 µM [rising, single point]
67 | COc1cccc(N2CCN(c3ccc4nnc(CCC(=O)Nc5ccc(C)cn5)n4n3)CC2)c1 | inactive | 
68 | O=C(N/N=C/c1ccc(N2CCOCC2)s1)c1ccc(NS(=O)(=O)c2cccs2)cc1 |  | inconclusive: 22.4 µM [falling, partial curve]
69 | O=C(Nc1ccc(S(=O)(=O)N2CCCC2)cc1)N1c2ccccc2Sc2ccccc21 | inconclusive: 3.39% | 
70 | COC(=O)C1=C(C(=O)OC)SC2(S1)C(C(=O)OC)=C(C(=O)OC)SC1=C2c2cc(C)ccc2NC1(C)C | inactive | 
71 | Cc1ccc(S(=O)(=O)Cc2ccc(C(=O)NCc3cccs3)o2)cc1 |  | inconclusive: 1.46 µM [rising, partial curve, poor fit]
72 | Cc1c(C)c2c(c(C)c1O)CCC(C)(C(=O)O)O2 (centres undefined) | inactive | 
73 | Cc1onc(-c2c(Cl)cccc2Cl)c1C(=O)NCC1CCCO1 (centres undefined) | inconclusive: 4.35% | 
74 | Cc1cccc(-n2c(SCc3ccc([N+](=O)[O-])cc3)nnc2-c2c[nH]c3ccccc23)c1 | inactive | 
75 | COc1ccc(NC(=O)c2nn(C)c(C(=O)Nc3ccc(OC)cc3)c2[N+](=O)[O-])cc1 | inconclusive: 2.39% | 
76 | Cc1ccc(NC(=O)CSc2nnc(-c3ccco3)o2)cc1 | inconclusive: 11.4% | 
77 | N#Cc1c(N)n(CCc2ccc(F)cc2)c2nc3ccccc3nc12 |  | inconclusive: 2.59 µM [rising, single point]
78 | Clc1ccc(Cc2noc(Cc3ccccc3)n2)cc1Cl | inconclusive: 26.5% | 
79 | O=S1(=O)[C@H]2C[C@H](CO)O[C@@]2(CO)CN1Cc1ccc(-c2cccc(Cl)c2)cc1 | inconclusive: -16.8% | 

Reprinted at random: 2 compounds from above.
Row | SMILES | activity change, negative = inhibition | Potency
18 | COC(=O)c1ccc(/C=N/OCC(=O)NC2CCCC(C)C2C)cc1 (centres undefined) | inactive | 
56 | COc1ccccc1NC(=O)Cc1c(F)cccc1Cl | inactive | 

Filtered by structure: those above with a CF3 group
Row | SMILES | activity change, negative = inhibition | Potency
9 | O=C(O)c1cnn(-c2nc(-c3ccc(Cl)cc3)cs2)c1C(F)(F)F | inconclusive: -18.4% | 
13 | CN(/N=C/c1ccccc1Cl)c1ncc(Cl)cc1C(F)(F)F | inconclusive: 3.53% | 
25 | CC(=O)Nc1ccc(NC(=O)C(F)(F)F)cc1 | inconclusive: 17.1% | 
